Reference: the supplement of paper PMC7858590
± gives the standard deviation of the averaged measurements. Whole data set: some 3,800 compounds, median “cell shape (eccentricity) Z-score vs DMSO control” near 1.1, cut for the lowest 2% near -4.7. Some of the results follow.

system: human monocyte-derived macrophages (M0); assay: cell shape (eccentricity) Z-score vs DMSO control; higher = more elongated, M2-like morphology; conditions: 20 µM; 24 h; macrophage state: M0 (M-CSF)
Procedure: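 Primary human monocyte-derived macrophages (M-CSF differentiated, pooled from 4 donors, 5000 cells/well in 384-well plates) were treated with each compound at 20 uM for 24 h, then fixed and stained with phalloidin/DAPI and imaged on an Opera Phenix (6 fields, about 1000 cells/well). Cell eccentricity was measured with CellProfiler, and a Z-score (t-test) was computed against 4 DMSO control wells in the same row. Negative values mean round (M1-like) cells and positive values mean elongated (M2-like) cells; the paper's hit cutoffs are Z <= -4 (M1) and Z >= 6 (M2). Scale: negative = round, M1-like.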

Structure (SMILES)	cell shape (Z-score)
C=CC(C)(O)CC/C=C(\C)C(=O)OCC1CCC2C(C(=O)O)=COC(OC3OC(CO)C(O)C(O)C3O)C12 (configuration not stated)	1.66 ± 2.1
O=C1NC(=O)C(c2ccccc2[N+](=O)[O-])=C1Nc1ccc(O)c(Cl)c1	-0.988
COc1ccc(C2COc3cc(O)ccc3C2)c(O)c1 (configuration not stated)	2.23
COCCNC(=O)COc1ccc(OCCNC[C@@H](O)COc2ccccc2)cc1	1.72
COc1ccc(-c2oc3cc(OC)c(OC)c(OC)c3c(=O)c2OC)cc1OC	-1.55
CC(NC(=O)/C=C/C(=O)O)C(=O)NC(C(=O)NC(Cc1c[nH]c2ccccc12)C(=O)O)C(C)c1c[nH]c2ccccc12 (configuration not stated)	-2.48
CC1(OC(=O)/C=C/c2ccccc2)CC(O)C2C=COC(OC3OC(CO)C(O)C(O)C3O)C21 (configuration not stated)	0.728
CC1(C)CC[C@]2(C(=O)O[C@@H]3O[C@H](CO[C@@H]4O[C@H](CO[C@@H]5O[C@H](CO)[C@@H](O)[C@H](O)[C@H]5O)[C@@H](O)[C@H](O)[C@H]4O)[C@@H](O)[C@H](O[C@@H]4O[C@H](CO)[C@@H](O)[C@H](O)[C@H]4O)[C@H]3O)CC[C@]3(C)C(=CCC4[C@@]5(C)CC[C@H](O)[C@@](C)(C(=O)O)C5CC[C@]43C)C2C1 (some centres not stated)	1.13
O=C(/C=C/c1cccnc1)NCCCCC1CCN(C(=O)c2ccccc2)CC1	-3
CC1CCN=C(N)S1 (configuration not stated)	2.54
CCN(CC)CCNC(C(=O)OCCC(C)C)c1ccccc1 (configuration not stated)	2.08
c1ccc2[nH]c(-c3cscn3)nc2c1	4.06
COC(=O)C1=C(C)NC(C)=C(C(=O)OCCN2CCN(C(c3ccccc3)c3ccccc3)CC2)C1c1cccc([N+](=O)[O-])c1 (configuration not stated)	2.66
COc1cc(COc2cc(N)c(Cl)cc2C(=O)CCC2CCN(CCNS(C)(=O)=O)CC2)cc(OC)c1	2.31
CCC/C=C/C=C/C1C[C@@H](O)[C@@H](O)C(=O)[C@H]1CO (some centres not stated)	-0.556
COC1CC2CCC(C)C(O)(O2)C(=O)C(=O)N2CCCCC2C(=O)OC(C(C)CC2CCC(O)C(OC)C2)CC(=O)C(C)/C=C(\C)C(O)C(OC)C(=O)C(C)CC(C)/C=C/C=C/C=C/1C (configuration not stated)	-0.961
O=c1ccc2cc(O)c(O)cc2o1	0.316
COC(=O)[C@H](NC(=O)c1cc(-c2ccccc2)nc2ccccc12)c1ccccc1	2.65
O=C(NO)c1ccncc1	2.25
CC(C(=O)O)c1ccc2c(c1)[nH]c1ccc(Cl)cc12 (configuration not stated)	0.593
O=C(/C=C/C=C/c1ccc2c(c1)OCO2)N1CCCCC1	2.45

Among those listed so far, two contain four or more nitrogen atoms.
Structure (SMILES)	cell shape (Z-score)
CC(NC(=O)/C=C/C(=O)O)C(=O)NC(C(=O)NC(Cc1c[nH]c2ccccc12)C(=O)O)C(C)c1c[nH]c2ccccc12 (configuration not stated)	-2.48
COC(=O)C1=C(C)NC(C)=C(C(=O)OCCN2CCN(C(c3ccccc3)c3ccccc3)CC2)C1c1cccc([N+](=O)[O-])c1 (configuration not stated)	2.66

The list goes on:

Structure (SMILES)	cell shape (Z-score)
CN(C)C/C=C/C(=O)Nc1cc2c(Nc3ccc(F)c(Cl)c3)ncnc2cc1O[C@H]1CCOC1	0.367
CC(=O)OCC(=O)[C@@]1(O)[C@H](OC(C)=O)CC2C3CCC4=CC(=O)C=C[C@]4(C)[C@@]3(F)[C@@H](O)C[C@@]21C (some centres not stated)	-3.67
Oc1cc(O)cc(/C=C/c2ccc(O)c(O)c2)c1	-0.87
COC1OC2c3cc4c(cc3CCN(C)C2c2ccc3c(c21)OCO3)OCO4 (configuration not stated)	-2.08
O=C(CCCN1CCC(O)(c2cccc(C(F)(F)F)c2)CC1)c1ccc(F)cc1	-0.261
C=C1C(=O)O[C@H]2C[C@H](C)[C@@H]3CC(=O)C(C)=C3C[C@H]12	-1.93
CC1CCC23CCC(O[C@@H]4O[C@H](CO)[C@@H](O)[C@H](O)[C@H]4O)C12C(C=O)=CC3(C)C (some centres not stated)	-2.01
O=C(OCc1ccccc1O[C@@H]1O[C@H](CO)[C@@H](O)[C@H](O)[C@H]1O)c1c(O)cccc1O[C@@H]1O[C@H](CO)[C@@H](O)[C@H](O)[C@H]1O	-1.14
COc1ccc(C(=O)CC2(O)C(=O)Nc3c(Cl)ccc(Cl)c32)cc1 (configuration not stated)	-7.6
COc1c(O)cc2oc(-c3ccc(O[C@@H]4O[C@H](CO)[C@@H](O)[C@H](O)[C@H]4O)cc3)cc(=O)c2c1O	-0.343
CCc1c2c(nc3ccc(O)cc13)-c1cc3c(c(=O)n1C2)COC(=O)C3(O)CC (configuration not stated)	4.55
COc1cccc2c1C(=O)c1c(O)c3c(c(O)c1C2=O)C[C@@](O)(C(=O)CO)C[C@@H]3OC1C[C@H](N)[C@H](O)[C@H](C)O1 (some centres not stated)	4.22
O=C(Nc1ccccc1)c1ccccc1O	0.616
CN(C)c1ccc(C(=O)NCCCCCCC(=O)NO)cc1	0.877
Cc1cccc(C)c1NC(=O)c1ccccc1C(=O)O	0.699
COc1c2c(cc3oc(=O)ccc13)OC(C)(C)C=C2	0.688
O=c1cc(N2CCOCC2)oc2c1ccc1ccccc12	-0.822
COc1cc2c(c(OC)c1OC)c(=O)c1ccccc1n2C	4.49
CC(C)=CCCC1(C)C=Cc2c(c(C)cc3c2[nH]c2cc(O)ccc23)O1 (configuration not stated)	1.6
C[C@@H](CN1CCC(Cc2ccccc2)CC1)[C@@H](O)c1ccc(O)cc1	2.28
CC(=O)NC(Cc1c[nH]c2ccccc12)C(=O)O (configuration not stated)	2.07
